{"sequences": {"note": "By UniProt entry, the sequences of proteins in these tests, tags left out. Residues count along the entry.", "UniProt Q9ULT6, residues 56-936": "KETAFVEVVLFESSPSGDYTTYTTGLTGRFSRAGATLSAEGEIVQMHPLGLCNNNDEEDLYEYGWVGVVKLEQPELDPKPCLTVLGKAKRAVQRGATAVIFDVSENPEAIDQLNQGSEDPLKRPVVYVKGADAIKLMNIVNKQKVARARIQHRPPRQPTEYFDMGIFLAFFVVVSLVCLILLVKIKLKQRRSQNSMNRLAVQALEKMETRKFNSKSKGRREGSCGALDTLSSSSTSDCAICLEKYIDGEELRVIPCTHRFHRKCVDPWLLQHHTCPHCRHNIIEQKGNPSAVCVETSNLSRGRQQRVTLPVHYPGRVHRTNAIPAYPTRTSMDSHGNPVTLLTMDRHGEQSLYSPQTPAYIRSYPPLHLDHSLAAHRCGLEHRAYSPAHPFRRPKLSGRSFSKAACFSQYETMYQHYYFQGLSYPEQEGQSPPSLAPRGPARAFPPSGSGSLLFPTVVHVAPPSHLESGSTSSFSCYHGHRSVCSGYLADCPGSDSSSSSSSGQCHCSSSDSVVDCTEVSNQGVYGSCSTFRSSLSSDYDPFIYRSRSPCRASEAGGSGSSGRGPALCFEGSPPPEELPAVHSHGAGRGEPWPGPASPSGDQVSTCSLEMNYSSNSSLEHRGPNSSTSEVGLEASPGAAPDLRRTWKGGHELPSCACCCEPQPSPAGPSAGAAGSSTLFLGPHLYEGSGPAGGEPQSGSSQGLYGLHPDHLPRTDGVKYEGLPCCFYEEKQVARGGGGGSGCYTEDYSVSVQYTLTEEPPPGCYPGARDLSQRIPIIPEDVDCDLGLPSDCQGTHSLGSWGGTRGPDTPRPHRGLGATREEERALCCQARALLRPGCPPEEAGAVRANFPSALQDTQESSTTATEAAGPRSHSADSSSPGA"}, "source": "paper PMC13068435", "target": "Endogenous EGFR of BGC823 cells (human (endogenous in BGC823)) (UniProt P00533)", "experiment": "affinity purification with mass spectrometry; BGC823 cells starved overnight, 50 ng/ml EGF for 0 or 120 min; 1 mg lysate with 5 µg EGFR (Ab-13) antibody, protein A-Sepharose, washed with NETN buffer; LC-MS/MS", "note": "These are yes or no findings as the source states them, for the method shown. Binding seen in cells or lysates may run through a third protein. These calls come from enrichment with a bait or labelling near it, and not all partners need be listed."}
{"substance": "Endogenous ZNRF3 of BGC823 cells (from UniProt Q9ULT6 56-936) (enzyme)", "values": [{"measurement": "binding", "result": "binds"}]}
